# Source: the supplement of paper PMC8728848
# This is one part of the list.
# Columns and labels:
# Experiment in all cases: glycan array binding signal (z-score within array); higher = stronger binding
# Settings in all cases: glycan notation: IUPAC condensed, linker removed
# [1] = biological target: Gal(b1-4)GlcNAc(b1-6)GalNAc
# Method in brief: (§1)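 From the Consortium for Functional Glycomics database, 3228 arrays were curated, keeping only those whose protein sequence was available. Binding is given as a within-array Z-score averaged across arrays sharing a protein sequence and across linkers. Negative Z-scores can be read as non-binding.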
# [2] = biological target: Gal(b1-4)GlcNAc(b1-6)[Gal(b1-3)]GalNAc
# Method in brief: as §1
# [3] = biological target: Gal(b1-4)GlcNAc(b1-6)[Gal(b1-4)GlcNAc(b1-3)]GalNAc
# Method in brief: as §1
# Gal(b1-4)GlcNAc6P = biological target: Gal(b1-4)GlcNAc6P
# Method in brief: as §1
# Gal(b1-6)Gal = biological target: Gal(b1-6)Gal
# Method in brief: as §1
# Gal3S(b1-3)GalNAc = biological target: Gal3S(b1-3)GalNAc
# Method in brief: as §1
# Gal3S(b1-3)GlcNAc = biological target: Gal3S(b1-3)GlcNAc
# Method in brief: as §1
# [4] = biological target: Gal3S(b1-3)[Fuc(a1-4)]GlcNAc
# Method in brief: as §1
# Gal3S(b1-4)Glc = biological target: Gal3S(b1-4)Glc
# Method in brief: as §1
# Gal3S(b1-4)Glc6S = biological target: Gal3S(b1-4)Glc6S
# Method in brief: as §1
# Gal3S(b1-4)GlcNAc = biological target: Gal3S(b1-4)GlcNAc
# Method in brief: as §1
# [5] = biological target: Gal3S(b1-4)[Fuc(a1-3)]Glc6S
# Method in brief: as §1
# [6] = biological target: Gal3S(b1-4)[Fuc(a1-3)]GlcNAc
# Method in brief: as §1
# [7] = biological target: Gal3S(b1-4)[Fuc(a1-3)]GlcNAc6S
# Method in brief: as §1
# Gal3S4S(b1-4)GlcNAc = biological target: Gal3S4S(b1-4)GlcNAc
# Method in brief: as §1
# Gal3S6S(b1-4)GlcNAc = biological target: Gal3S6S(b1-4)GlcNAc
# Method in brief: as §1
# Gal3S6S(b1-4)GlcNAc6S = biological target: Gal3S6S(b1-4)GlcNAc6S
# Method in brief: as §1
# Gal4S(b1-4)GlcNAc = biological target: Gal4S(b1-4)GlcNAc
# Method in brief: as §1
# Gal4S6S(b1-4)GlcNAc = biological target: Gal4S6S(b1-4)GlcNAc
# Method in brief: as §1
# Gal6P(b1-4)GlcNAc = biological target: Gal6P(b1-4)GlcNAc
# Method in brief: as §1
# Gal6S(b1-3)GlcNAc = biological target: Gal6S(b1-3)GlcNAc
# Method in brief: as §1
# Gal6S(b1-3)GlcNAc6S = biological target: Gal6S(b1-3)GlcNAc6S
# Method in brief: as §1
# Gal6S(b1-4)Glc = biological target: Gal6S(b1-4)Glc
# Method in brief: as §1
# Gal6S(b1-4)Glc6S = biological target: Gal6S(b1-4)Glc6S
# Method in brief: as §1
# Gal6S(b1-4)GlcNAc = biological target: Gal6S(b1-4)GlcNAc
# Method in brief: as §1
# Gal6S(b1-4)GlcNAc6S = biological target: Gal6S(b1-4)GlcNAc6S
# Method in brief: as §1
# GalNAc(a1-3)Gal = biological target: GalNAc(a1-3)Gal
# Method in brief: as §1
# GalNAc(a1-3)GalNAc = biological target: GalNAc(a1-3)GalNAc
# Method in brief: as §1
# [8] = biological target: GalNAc(a1-3)GalNAc(b1-3)Gal(a1-4)Gal(b1-4)Glc
# Method in brief: as §1
# [9] = biological target: GalNAc(a1-3)GalNAc(b1-3)Gal(a1-4)Gal(b1-4)GlcNAc
# Method in brief: as §1
# GalNAc(b1-3)Gal = biological target: GalNAc(b1-3)Gal
# Method in brief: as §1
# [10] = biological target: GalNAc(b1-3)Gal(a1-4)Gal(b1-4)GlcNAc
# Method in brief: as §1
# [11] = biological target: GalNAc(b1-3)Gal(a1-4)Gal(b1-4)GlcNAc(b1-3)Gal(b1-4)Glc
# Method in brief: as §1
# [12] = biological target: GalNAc(b1-3)Gal(a1-6)Gal(b1-4)Glc
# Method in brief: as §1
# GalNAc(b1-3)GalNAc = biological target: GalNAc(b1-3)GalNAc
# Method in brief: as §1
# GalNAc(b1-3)GlcNAc = biological target: GalNAc(b1-3)GlcNAc
# Method in brief: as §1
# GalNAc(b1-4)Gal(b1-4)Glc = biological target: GalNAc(b1-4)Gal(b1-4)Glc
# Method in brief: as §1
# GalNAc(b1-4)GlcNAc = biological target: GalNAc(b1-4)GlcNAc
# Method in brief: as §1
binder,measurement,setting,value
LF82 (Escherichia coli) (protein) ADWGPCRTASGDPFIFVTSFTKNIQNPTDNVTGQTYPDFYQWALGDKYSGVCECPSPNPTEARPTLYKTESTLAAGHNSTYFKITNNLEVSTRVYIANVGNVQVPFINKSNSQPGRECDQPTFGWTTGSKGQLSLYIAKPFVGEQNIPQTIIVSVFGTKKENVYSSVPISQVLLSGKVTVTQGCELAAGTSLDIDFGEYQAHDFKGRTGQPPQNVQKIQKELTFNCTNISDGVHIYLSLEGTPNAAYPSAISLGNADVGAVIEDGKGNILKPNDSNSLLEMNPGSLYEYVKRKVTTTITAYPVSTTGKLPAAGDYSGVATMHVELDGGGGGGGGGGATTDLGAKGTLKFSLKISQGHHHHHH,glycan array binding signal (z-score),[1],1.56
same,glycan array binding signal (z-score),[2],-0.521
same,glycan array binding signal (z-score),[3],-0.454
same,glycan array binding signal (z-score),Gal(b1-4)GlcNAc6P,-0.346
same,glycan array binding signal (z-score),Gal(b1-6)Gal,-0.909
same,glycan array binding signal (z-score),Gal3S(b1-3)GalNAc,0.05
same,glycan array binding signal (z-score),Gal3S(b1-3)GlcNAc,-0.741
same,glycan array binding signal (z-score),[4],-1.08
same,glycan array binding signal (z-score),Gal3S(b1-4)Glc,-0.34
same,glycan array binding signal (z-score),Gal3S(b1-4)Glc6S,-0.104
same,glycan array binding signal (z-score),Gal3S(b1-4)GlcNAc,-0.102
same,glycan array binding signal (z-score),[5],-0.55
same,glycan array binding signal (z-score),[6],0.367
same,glycan array binding signal (z-score),[7],0.096
same,glycan array binding signal (z-score),Gal3S4S(b1-4)GlcNAc,-0.428
same,glycan array binding signal (z-score),Gal3S6S(b1-4)GlcNAc,0.787
same,glycan array binding signal (z-score),Gal3S6S(b1-4)GlcNAc6S,-0.014
same,glycan array binding signal (z-score),Gal4S(b1-4)GlcNAc,-0.492
same,glycan array binding signal (z-score),Gal4S6S(b1-4)GlcNAc,-0.039
same,glycan array binding signal (z-score),Gal6P(b1-4)GlcNAc,-0.578
same,glycan array binding signal (z-score),Gal6S(b1-3)GlcNAc,-1.32
same,glycan array binding signal (z-score),Gal6S(b1-3)GlcNAc6S,-0.889
same,glycan array binding signal (z-score),Gal6S(b1-4)Glc,-0.342
same,glycan array binding signal (z-score),Gal6S(b1-4)Glc6S,1.7
same,glycan array binding signal (z-score),Gal6S(b1-4)GlcNAc,0.02
same,glycan array binding signal (z-score),Gal6S(b1-4)GlcNAc6S,0.849
same,glycan array binding signal (z-score),GalNAc(a1-3)Gal,-0.316
same,glycan array binding signal (z-score),GalNAc(a1-3)GalNAc,-0.252
same,glycan array binding signal (z-score),[8],0.343
same,glycan array binding signal (z-score),[9],-0.744
same,glycan array binding signal (z-score),GalNAc(b1-3)Gal,0.142
same,glycan array binding signal (z-score),[10],2.1
same,glycan array binding signal (z-score),[11],-0.512
same,glycan array binding signal (z-score),[12],0.447
same,glycan array binding signal (z-score),GalNAc(b1-3)GalNAc,0.423
same,glycan array binding signal (z-score),GalNAc(b1-3)GlcNAc,-0.22
same,glycan array binding signal (z-score),GalNAc(b1-4)Gal(b1-4)Glc,0.956
same,glycan array binding signal (z-score),GalNAc(b1-4)GlcNAc,0.982

# Reprinted at random: 2 records from the list
binder,measurement,setting,value
LF82 (Escherichia coli) (protein) ADWGPCRTASGDPFIFVTSFTKNIQNPTDNVTGQTYPDFYQWALGDKYSGVCECPSPNPTEARPTLYKTESTLAAGHNSTYFKITNNLEVSTRVYIANVGNVQVPFINKSNSQPGRECDQPTFGWTTGSKGQLSLYIAKPFVGEQNIPQTIIVSVFGTKKENVYSSVPISQVLLSGKVTVTQGCELAAGTSLDIDFGEYQAHDFKGRTGQPPQNVQKIQKELTFNCTNISDGVHIYLSLEGTPNAAYPSAISLGNADVGAVIEDGKGNILKPNDSNSLLEMNPGSLYEYVKRKVTTTITAYPVSTTGKLPAAGDYSGVATMHVELDGGGGGGGGGGATTDLGAKGTLKFSLKISQGHHHHHH,glycan array binding signal (z-score),[3],-0.454
same,glycan array binding signal (z-score),[5],-0.55
